These are yes or no findings as the source states them, for the method shown. In cells and extracts the contact can be indirect. Some results given as binding are weak or reduced against the parent protein; the word gives no strength.
Biological target: PKM2 (pyruvate kinase isoform M2), endogenous in treated cells (human (endogenous in human colorectal cancer cell lines)) (UniProt P14618)
Experiment: co-IP; cells treated with 125I-HMGB1 (80 nM, 24 h) with or without P-M2tide (10 uM, 24 h) or ML-265 (100 uM, 24 h); PKM2 immunoprecipitated; radioactivity measured in a liquid scintillation counter; only the binder purified

The chains behind the UniProt entries cited, without tags or fusion partners.
UniProt P14618: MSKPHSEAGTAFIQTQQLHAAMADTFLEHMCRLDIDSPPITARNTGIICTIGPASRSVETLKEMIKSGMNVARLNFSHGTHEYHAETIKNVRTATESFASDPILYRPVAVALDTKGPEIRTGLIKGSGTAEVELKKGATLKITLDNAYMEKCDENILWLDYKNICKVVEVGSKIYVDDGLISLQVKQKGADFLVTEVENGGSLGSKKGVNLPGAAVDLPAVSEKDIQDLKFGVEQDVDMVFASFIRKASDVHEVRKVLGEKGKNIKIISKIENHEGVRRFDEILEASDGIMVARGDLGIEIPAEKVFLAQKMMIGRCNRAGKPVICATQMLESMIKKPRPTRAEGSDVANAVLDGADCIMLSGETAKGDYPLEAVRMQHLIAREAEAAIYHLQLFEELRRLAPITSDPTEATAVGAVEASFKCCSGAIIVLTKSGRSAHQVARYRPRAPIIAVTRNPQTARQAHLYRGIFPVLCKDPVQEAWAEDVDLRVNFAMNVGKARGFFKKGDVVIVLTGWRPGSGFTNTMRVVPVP
UniProt P09429: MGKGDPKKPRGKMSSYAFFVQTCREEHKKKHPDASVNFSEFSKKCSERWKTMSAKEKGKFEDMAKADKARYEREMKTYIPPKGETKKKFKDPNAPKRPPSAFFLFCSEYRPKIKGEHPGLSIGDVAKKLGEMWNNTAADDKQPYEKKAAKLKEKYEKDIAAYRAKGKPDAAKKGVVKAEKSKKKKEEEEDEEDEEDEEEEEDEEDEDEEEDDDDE

binding: binds
Substance: 125I-labelled HMGB1 (from UniProt P09429 1-215)

Source: article PMC4786644
